Values quoted from earlier work, collected in patent publication US20100093662A1, “NOVEL AMPHIPHILIC CYCLODEXTRIN DERIVATIVES” (CENTRE NATIONAL DE LA RECHERCHE SCIENTIFIQUE-CNRS-, priority 2006, published 2010).
Converted amounts (≈) assume the structure as drawn.

Conditions: at 25° C.; cited from earlier work

OC[C@H]1O[C@@H]2O[C@H]3[C@H](O)[C@@H](O)[C@@H](O[C@H]4[C@H](O)[C@@H](O)[C@@H](O[C@H]5[C@H](O)[C@@H](O)[C@@H](O[C@H]6[C@H](O)[C@@H](O)[C@@H](O[C@H]7[C@H](O)[C@@H](O)[C@@H](O[C@H]8[C@H](O)[C@@H](O)[C@@H](O[C@H]1[C@H](O)[C@H]2O)O[C@@H]8CO)O[C@@H]7CO)O[C@@H]6CO)O[C@@H]5CO)O[C@@H]4CO)O[C@@H]3CO [beta-cyclodextrin]
solubility in water: 15 mM (≈ 17 mg/mL)
